The assay has as its target T1, FASTK∆N1-75 (Homo sapiens, UniProt Q14296 76-549, del1-75).
T1 sequence: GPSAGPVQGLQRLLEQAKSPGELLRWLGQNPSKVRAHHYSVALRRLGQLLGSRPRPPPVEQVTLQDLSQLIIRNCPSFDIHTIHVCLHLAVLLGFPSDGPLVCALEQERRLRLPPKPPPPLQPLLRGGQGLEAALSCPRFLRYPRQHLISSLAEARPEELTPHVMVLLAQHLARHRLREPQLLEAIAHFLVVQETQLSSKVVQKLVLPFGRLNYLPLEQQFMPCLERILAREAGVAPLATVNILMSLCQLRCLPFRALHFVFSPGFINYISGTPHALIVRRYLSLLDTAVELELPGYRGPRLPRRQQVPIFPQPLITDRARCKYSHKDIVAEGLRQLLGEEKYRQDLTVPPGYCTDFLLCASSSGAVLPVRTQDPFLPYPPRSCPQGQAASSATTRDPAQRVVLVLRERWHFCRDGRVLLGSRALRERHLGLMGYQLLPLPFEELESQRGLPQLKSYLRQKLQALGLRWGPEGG
As to the kind of experiment: SEC-MALS; 100 μL of purified protein at 5 mg/mL (~94 μM) injected on Superdex 200 Increase 10/300 GL in 1× PBS, 50 mM ammonium sulfate, 5% (v/v) glycerol, 1 mM DTT; BSA as calibration standard; both purified. For orientation: Size exclusion chromatography separates by hydrodynamic size, large species first.

Results are given in words; binding and its absence hold for the method and conditions named.

Among the data in paper PMC12871924, “Human FASTK preferentially binds single‐stranded and G‐rich RNA” are binding values, retold here.

B1: FASTK∆N1‐75 (domain or fragment, UniProt Q14296 76-549)
chain: T1 sequence
For B1, the binding result is given as “no binding (tested: ~94 μM)”.
